Test results from EP0025842B1 (FUJISAWA PHARMACEUTICAL CO., LTD., priority 1979, dated 1987).

Test: general procedure: solution-phase peptide synthesis; isobutyl chlorocarbonate / N-methyl morpholine (mixed anhydride)
Conditions: late stage modification step

For “D-Lac-L-Ala-y-D-Glu(α-OH)-(L)-Z-(D)-mesoDAP-(L)-GlyOH”, the step yield was 94.7%.
